Experimental data taken from article doi:10.1101/2024.04.02.587808.
No constants are given. Whether binding was seen depends on the method and setting. In cells and extracts the contact can be indirect. Some entries that bind do so weakly or less than the wild type.

Chains of the proteins cited; added tags and fusions are not shown.
UniProt P61026: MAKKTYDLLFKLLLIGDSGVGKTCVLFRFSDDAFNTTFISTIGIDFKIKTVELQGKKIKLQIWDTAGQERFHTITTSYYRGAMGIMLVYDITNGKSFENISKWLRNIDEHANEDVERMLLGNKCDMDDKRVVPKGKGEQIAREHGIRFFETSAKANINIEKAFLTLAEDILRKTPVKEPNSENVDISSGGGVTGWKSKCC

Tests used:
[1] = target: T1, mCherry-RILPL1 (RILP-like protein 1) (UniProt Q5EBL4); assay: co-IP; HEK293FT cells transfected with 3xflag-LRRK2 and mCherry-RILPL1 for 24 h, treated or not with LLOME (1 mM, 2 h); lysate (150 mM NaCl, 0.3% Triton X-100) on RFP-Trap magnetic beads, 1 h, 4°C; washes with 300 mM NaCl, 0.1% Triton X-100; immunoblot
T1 sequence: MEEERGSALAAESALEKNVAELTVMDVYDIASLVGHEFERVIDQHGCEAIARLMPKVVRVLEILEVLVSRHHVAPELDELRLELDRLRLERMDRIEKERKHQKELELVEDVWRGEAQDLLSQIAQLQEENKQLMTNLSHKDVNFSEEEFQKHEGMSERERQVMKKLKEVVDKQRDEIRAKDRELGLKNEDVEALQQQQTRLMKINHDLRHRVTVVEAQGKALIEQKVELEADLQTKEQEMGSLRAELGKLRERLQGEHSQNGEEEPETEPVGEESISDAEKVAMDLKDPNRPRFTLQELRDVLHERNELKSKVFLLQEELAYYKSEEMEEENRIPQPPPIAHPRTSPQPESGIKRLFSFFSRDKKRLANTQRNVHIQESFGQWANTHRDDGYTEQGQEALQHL

[2] = target: T1, mCherry-RILPL1 (RILP-like protein 1); assay: co-IP; U2OS cells transfected with 3xflag-LRRK2 and mCherry-RILPL1; lysate on RFP-Trap magnetic beads, 1 h, 4°C; washes with 300 mM NaCl, 0.1% Triton X-100; immunoblot

Row | Substance | binding [1] | binding [2]
1 | p150^Glued (DCTN1), dynactin subunit (from UniProt Q14203-1 1-1278) | binds | 
2 | pRAB10 (RAB10 phosphorylated at T73) (from UniProt P61026 1-200) | binds | binds
